From US4348410A, “Cyclohexane carboxylic acid derivatives” (Nippon Chemiphar Co., Ltd., priority 1979, dated 1982)
Structures can show the parent of a compound that is named as a salt.

System: gastric secretion
Assay: Influence to the gastric secretion (pylorus ligation)
Format: in vivo, Male Sprague-Dawley strain rats
Settings: 12.5 mg/kg i.p.
Protocol: Male Sprague-Dawley strain rats, weighing 160-180 g were deprived of food but allowed free access to water for 20 hours prior to experiment. […] The test drug was given intraperitoneally immediately after pylorus ligation. The rats were sacrificed 3, 6 and 12 hours later and the stomachs removed. The gastric juice was collected and analyzed for volume. Then the gastric juice was centrifuged at 1300 g for 10 minutes at room temperature to give the supernatant. The total acidity and peptic activity of the supernatant were determined. Total acidity was determined by titrating with 0.01 N NaOH. […] Total acidity is shown as the titration volume (ml) and peptic activity is shown as the corresponding weight (mg) to crystal pepsin.

## CN1[C@@H]2CC[C@H]1C[C@@H](OC(=O)C(CO)c1ccccc1)C2 (some centres unmarked) [Compound B, atropine sulfate, reference compound]
3 hours
  Titratable Acid Output: 17.7 ± 7.7 μEg
  Titratable Acid Output % change: 78.6%
6 hours
  Titratable Acid Output: 171.6 ± 50.0 μEq
  Titratable Acid Output % change: 55.1%
12 hours
  Titratable Acid Output: 617.1 ± 48.0 μEq
